Here are results for nine variants from the supplement of paper PMC10382679.

The chains are these.
B1: Rpb7; numbered along this chain (parent)
chain: MFFIKDLSLNITLHPSFFGPRMKQYLKTKLLEEVEGSCTGKFGYILCVLDYDNIDIQRGRILPTDGSAEFNVKYRAVVFKPFKGEVVDGTVVSCSQHGFEVQVGPMKVFVTKHLMPQDLTFNAGSNPPSYQSSEDVITIKSRIRVKIEGCISQVSSIHAIGSIKEDYLGAI

Single values of this set are uncertain.

Data set [1] covers variants of B1. Put plainly: log2 fold change of mutant abundance, UV-irradiated vs unirradiated; higher = more UV resistant (enriched after UV). The settings on record: with Saccharomyces cerevisiae rad7Δ rad26Δ; UV dose (J/m2): 10; genetic background: rad7Δ rad26Δ rpb7Δ + plasmid RPB7 library; outgrowth: 10 cell divisions.
The variants in data set [2] derive from B1. Put plainly: NOISeq theta enrichment statistic, UV-irradiated vs unirradiated (dimensionless); higher = more UV resistant (enriched after UV). The settings on record: with Saccharomyces cerevisiae rad7Δ rad26Δ; UV dose (J/m2): 10; genetic background: rad7Δ rad26Δ rpb7Δ + plasmid RPB7 library; outgrowth: 10 cell divisions.

For the variant MFFIKDLSLNITLHPSFFGPRMKQYLKTKLLEEVEGSCTGKFGYILCVLDYDNIDIQRGRILPTDGSAEFNVKYRAVVFKPFKGECVDGTVVSCSQHGFEVQVGPMKVFVTKHLMPQDLTFNAGSNPPSYQSSEDVITIKSRIRVKIEGCISQVSSIHAIGSIKEDYLGAI [V86C], the “log2 fold change of mutant abundance” value in data set [1] is -0.229. The “NOISeq theta enrichment statistic” value in data set [2] was -0.165.

MFFIKDLSLNITLHPSFFGPRMKQYLKTKLLEEVEGSCTGKFGYILCVLDYDNIDIQRGRILPTDGSAEFNVKYRAVVFKPFKGEVVDGTVVSCSQHGWEVQVGPMKVFVTKHLMPQDLTFNAGSNPPSYQSSEDVITIKSRIRVKIEGCISQVSSIHAIGSIKEDYLGAI [F99W]: the “log2 fold change of mutant abundance” value in data set [1] came out at 0.492. Moreover, the “NOISeq theta enrichment statistic” value in data set [2] came to 0.439.

Regarding MFFIKDLSLNITLHPSFFGPRMKQYLKTKLLEEVEGSCTGKFGYILCVLDYDNIDIQRGRILPTDGSAEFNVKYRAVVFKRFKGEVVDGTVVSCSQHGFEVQVGPMKVFVTKHLMPQDLTFNAGSNPPSYQSSEDVITIKSRIRVKIEGCISQVSSIHAIGSIKEDYLGAI [P81R], the “log2 fold change of mutant abundance” value in data set [1] was 0.00401. Also, in data set [2], the “NOISeq theta enrichment statistic” value worked out at 0.00576.

Take MFFIKDLSLNITLHPSFFGPRMKQKLKTKLLEEVEGSCTGKFGYILCVLDYDNIDIQRGRILPTDGSAEFNVKYRAVVFKPFKGEVVDGTVVSCSQHGFEVQVGPMKVFVTKHLMPQDLTFNAGSNPPSYQSSEDVITIKSRIRVKIEGCISQVSSIHAIGSIKEDYLGAI [Y25K]: the “log2 fold change of mutant abundance” value in data set [1] was 0.729. For the same variant, the “NOISeq theta enrichment statistic” value in data set [2] came to 0.327.

In the case of MFFIKDLSLNITLHPSFFGPRMKQYLKTKLLEEVEGSCTGKFGYILCVLDYDNIDIQRGRILPTDGSAEFNVKYRAVVFKPFKGEVVDGTVVSCSQHGFEVQVGPMKVFGTKHLMPQDLTFNAGSNPPSYQSSEDVITIKSRIRVKIEGCISQVSSIHAIGSIKEDYLGAI [V110G], the “log2 fold change of mutant abundance” value in data set [1] is 0.00373. Moreover, the “NOISeq theta enrichment statistic” value in data set [2] amounted to 0.021.

For MFFIKDLSLNITLHPSFFGPRMKQYLKTKLLEEVEGSCTGKFGYILCVLDYDNIDIQRGRILPTDGSAEFNVKYRAVVFKPFKGEVVDGTVVSCSQHGFEVQVGPMKVFVTKHLMPQDLTFNAGSNPPSSQSSEDVITIKSRIRVKIEGCISQVSSIHAIGSIKEDYLGAI [Y130S], in data set [1], the “log2 fold change of mutant abundance” value amounted to 0.0184. Also, in data set [2], the “NOISeq theta enrichment statistic” value came to 0.0238.

On to MFFIKDLSLNITLHPSFFGPRMKQYLKTKYLEEVEGSCTGKFGYILCVLDYDNIDIQRGRILPTDGSAEFNVKYRAVVFKPFKGEVVDGTVVSCSQHGFEVQVGPMKVFVTKHLMPQDLTFNAGSNPPSYQSSEDVITIKSRIRVKIEGCISQVSSIHAIGSIKEDYLGAI [L30Y], for which the “log2 fold change of mutant abundance” value in data set [1] was -0.203. For the same variant, the “NOISeq theta enrichment statistic” value in data set [2] was -0.223.

Turning to MFFIKDLSLNITLHPSFFGPRMKQYLKTKLLEEVEGSCTGKFGYILCVLDYDNIDIQRGRILPTDGSAEFNVKYRAVVFKPFKGEVVDGTVVSCSQHGFEVQVGPMKVFVTKHLMPQDLKFNAGSNPPSYQSSEDVITIKSRIRVKIEGCISQVSSIHAIGSIKEDYLGAI [T120K], the “log2 fold change of mutant abundance” value in data set [1] was -0.188. Further, the “NOISeq theta enrichment statistic” value in data set [2] is -0.127.

Regarding MFFIKDLSLNITLHPSFFGPRMKQYLKTKLLEEVEGSCTGKFGYILCVLDYDNIDIQRGRILPTDGSAEFNVKYRAVVFKPFKGEVVDGTVVSCSQHGFEVQVGPMKVFVTKHLMPQDLTFNAGSNPPSYQSSEDSITIKSRIRVKIEGCISQVSSIHAIGSIKEDYLGAI [V136S], the “log2 fold change of mutant abundance” value in data set [1] is -0.282. Also, the “NOISeq theta enrichment statistic” value in data set [2] was -0.195.
